# No constants are given. Whether binding was seen depends on the method and setting. Some results given as binding are weak or reduced against the parent protein; the word gives no strength.
# Chains of the proteins cited; added tags and fusions are not shown. Lines headed by an entry give the natural chain unless they say otherwise; changes in a name come on top.
# UniProt P28907: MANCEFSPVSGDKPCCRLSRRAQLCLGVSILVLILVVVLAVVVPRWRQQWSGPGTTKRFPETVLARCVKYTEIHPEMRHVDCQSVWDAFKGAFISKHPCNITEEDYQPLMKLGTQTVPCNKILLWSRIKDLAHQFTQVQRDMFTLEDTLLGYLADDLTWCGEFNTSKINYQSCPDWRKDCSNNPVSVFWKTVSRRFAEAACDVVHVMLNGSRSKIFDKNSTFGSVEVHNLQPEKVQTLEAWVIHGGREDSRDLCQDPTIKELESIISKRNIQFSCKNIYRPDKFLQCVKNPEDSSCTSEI
# UniProt Q5VAN0: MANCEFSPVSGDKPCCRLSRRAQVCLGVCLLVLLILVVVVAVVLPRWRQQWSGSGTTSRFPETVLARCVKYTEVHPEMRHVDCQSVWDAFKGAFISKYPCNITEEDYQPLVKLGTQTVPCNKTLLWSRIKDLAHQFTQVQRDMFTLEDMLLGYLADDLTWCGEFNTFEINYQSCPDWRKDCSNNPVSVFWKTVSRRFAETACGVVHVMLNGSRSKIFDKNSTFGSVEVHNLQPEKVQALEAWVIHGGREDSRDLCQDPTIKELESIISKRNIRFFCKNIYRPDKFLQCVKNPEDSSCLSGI
# B1: CD38TM6 formatted into human IgG1 (antibody, V domains shown)
# VH: EVQLLESGGGLVQPGGSLRLSCAASGFTFDDYGMTWVRQAPGKGLEWVSGINWNGGSTGYADSVKGRFTISRDNSKNTLYLQMNSLRAEDTAVYYCARGGLFHDSSGYYFGHWGQGTLVTVSS
# VL: QSVLTQPPSASGTPGQRVTISCSGSSSNIGNSYVSWYQQLPGTAPKLLIYRNNQRPSGVPDRFSGSKSGTSASLAISGLRSEDEADYYCSAWDDNLSVLFGGGTKLTVL
# How the values were obtained:
# [1] = molecular target: human CD38 on human multiple myeloma MOLP-8 cells (human) (UniProt P28907); assay: flow cytometry, IgG1 on MOLP-8 cells
# [2] = molecular target: cynomolgus CD38 on cells expressing recombinant cynomolgus CD38 (cynomolgus) (UniProt Q5VAN0); assay: flow cytometry, IgG1 on cells expressing recombinant cynomolgus CD38
binder,measurement,setting,value
B1,binding,[1],binds
same,binding,[2],binds
